{"sequences": {"note": "Sequences of proteins named here, by UniProt entry; tags and fusion partners are left off.", "UniProt Q92830, whole entry, looked up": "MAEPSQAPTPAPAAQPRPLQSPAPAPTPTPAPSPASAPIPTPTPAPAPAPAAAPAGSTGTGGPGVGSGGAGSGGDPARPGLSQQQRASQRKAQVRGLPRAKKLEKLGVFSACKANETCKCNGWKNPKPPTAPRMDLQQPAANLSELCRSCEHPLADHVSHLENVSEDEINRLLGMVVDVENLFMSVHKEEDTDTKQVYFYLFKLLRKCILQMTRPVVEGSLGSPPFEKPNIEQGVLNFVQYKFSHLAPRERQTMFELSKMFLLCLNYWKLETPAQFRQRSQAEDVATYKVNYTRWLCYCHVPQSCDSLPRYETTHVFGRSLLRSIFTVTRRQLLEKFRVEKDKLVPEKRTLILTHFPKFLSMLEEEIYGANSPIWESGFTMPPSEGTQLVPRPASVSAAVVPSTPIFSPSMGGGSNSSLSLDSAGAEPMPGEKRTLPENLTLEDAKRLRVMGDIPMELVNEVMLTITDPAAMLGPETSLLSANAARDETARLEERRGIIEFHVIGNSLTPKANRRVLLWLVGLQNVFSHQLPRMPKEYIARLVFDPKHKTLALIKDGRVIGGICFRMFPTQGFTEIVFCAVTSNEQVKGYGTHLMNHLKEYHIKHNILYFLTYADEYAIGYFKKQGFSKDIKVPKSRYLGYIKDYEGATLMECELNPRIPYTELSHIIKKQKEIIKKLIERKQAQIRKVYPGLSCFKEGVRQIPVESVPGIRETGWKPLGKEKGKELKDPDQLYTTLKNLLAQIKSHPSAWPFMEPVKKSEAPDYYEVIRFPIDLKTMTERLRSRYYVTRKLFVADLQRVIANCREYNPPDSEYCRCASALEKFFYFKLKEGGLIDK"}, "source": "PubChem BioAssay AID504327", "about": "(National Center for Advancing Translational Sciences (NCATS), 2011)", "note": "Several values for one entry are separate records, joined by “and”; a condition that tells them apart may be missing. Equal values may be shown once. The campaign covered roughly 390,000 compounds. About 820 (0.21%) were called active. The shares of active, inactive and inconclusive entries below differ from those in the screen. Calls come from the whole dose curve; as a rule, active = well fitted inhibition curve with a large enough effect; inconclusive = small, poorly fitted or top-dose-only effect, or another doubt; inactive = no such curve, though single readings can be large or run the other way. A potency beside an inconclusive call is a rough fit, not a confirmed value. % is set by controls: 0 for no effect and ±100 for the full control effect; potency is the fitted concentration of half-maximal effect.", "data": [{"target": "Histone acetyltransferase KAT2A (Homo sapiens) (UniProt Q92830)", "assay": "qHTS Assay for Inhibitors of GCN5L2", "conditions": "GCN5L2 HAT assay, ThioGlo1 CoA-SH fluorescence; activity change, negative = inhibition: at 58.9 µM (top of the series) unless noted", "procedure,_shortened": "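GCN5L2 (20 nM) in 50mM HEPES pH 7.5, 0.1mM EDTA, 0.01% Tween-20 preincubated 15 min with compounds at room temperature. Reaction started with H3(1-25) 75uM, acetyl-CoA 70uM, ThioGlo1 50uM; CoA-thiol fluorescence (Ex340/Em540) read at 0 and 20 min.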", "values": [{"smiles": "NNC(=O)c1ccc(Oc2cc(Cl)cc(Cl)c2)o1", "Potency": "inconclusive: 8.91 µM [inhibitor, single point]"}, {"smiles": "COc1cc2c(C#N)c(N3CCCCC3)nc(N)c2c(N)n1", "activity change, negative = inhibition": "inactive: -8.05%"}, {"smiles": "Cc1ccc(C(=O)Nc2ccc(OCc3ccccc3)cc2)cc1[N+](=O)[O-]", "Potency": "inconclusive: 1 µM [inhibitor, partial curve, poor fit]"}, {"smiles": "CCOC(=O)c1ccc(S(=O)(=O)Nc2cc(S(=O)(=O)N3CCOCC3)ccc2O)cc1", "Potency": "inconclusive: 22.4 µM [inhibitor, single point]"}, {"smiles": "Cc1cc(C(=O)N2CCN(c3ccc(F)cc3)CC2)on1", "Potency": "inconclusive: 7.08 µM [inhibitor, single point]"}, {"smiles": "Cc1cnc(NC(=O)CCN2C(=O)C3CCCCC3C2=O)s1", "note": "(stereo not given)", "Potency": "inconclusive: 39.8 µM [inhibitor, single point]"}, {"smiles": "c1cc(Nc2cccc3nccnc23)c2nccnc2c1", "Potency": "inconclusive: 39.8 µM [inhibitor, single point]"}, {"smiles": "CC1CCCC(C)N1C(=O)COC(=O)c1ccccc1O", "note": "(stereo not given)", "activity change, negative = inhibition": "inactive: -3.41%"}, {"smiles": "Cc1c(Cl)cccc1NC(=O)CSc1ncc(S(=O)(=O)c2ccc(C(C)C)cc2)c(=O)[nH]1", "Potency": "inconclusive: 35.5 µM [inhibitor, single point]"}, {"smiles": "S=c1[nH]nc2nnc3ccccc3n12", "activity change, negative = inhibition": "inactive: -17.5%"}, {"smiles": "COc1ccc(NC(=S)N2CCC(Cc3ccccc3)CC2)cc1OC", "Potency": "inconclusive: 0.112 µM [inhibitor, full curve, poor fit]"}, {"smiles": "CCOc1cc(-c2ccc(OC(=O)c3ccc(Cl)cc3)c(OC)c2)cc(=O)c2c(C)oc(C)c12", "activity change, negative = inhibition": "inactive: -8.69%"}, {"smiles": "O=C(CSc1nnc(NC(=O)c2ccccc2)s1)NCC1CCCO1", "note": "(stereo not given)", "Potency": "inconclusive: 0.447 µM [inhibitor, full curve, poor fit]"}, {"smiles": "COCCN(C(=O)c1snc(C(N)=O)c1N)C(C(=O)NC1CCCCC1)c1ccc(N(C)C)cc1", "note": "(stereo not given)", "Potency": "inconclusive: 25.1 µM [inhibitor, single point]"}, {"smiles": "CC(C)(C)c1ccc(C(=O)N/N=C/c2ccccn2)cc1", "activity change, negative = inhibition": "inactive: -6.88%"}, {"smiles": "c1ncc(-c2ccoc2)c(NC2CC2)n1", "Potency": "inconclusive: 28.2 µM [inhibitor, single point]"}, {"smiles": "COC(=O)c1cc2occc2n1CC(=O)Nc1ccc(C)cc1C", "Potency": "inconclusive: 3.55 µM [inhibitor, partial curve]"}, {"smiles": "Cc1cc(N)n(-c2ccc3ccccc3c2)n1", "Potency": "inconclusive: 0.708 µM [inhibitor, full curve, poor fit]"}, {"smiles": "COc1ccc(C(=O)NC2CC2)cc1OC1CCN(Cc2cc(C)c(C)cc2C)CC1", "Potency": "inconclusive: 7.94 µM [inhibitor, partial curve, poor fit]"}, {"smiles": "CC(=O)Oc1ccc(N2C(=O)C3C4C=CC(CO)(O4)C3C2=O)cc1", "note": "(stereo not given)", "activity change, negative = inhibition": "inconclusive: -48.8% [inhibitor]"}, {"smiles": "COc1ccc(NC(=O)c2cc(S(=O)(=O)N3CCc4ccccc43)cn2C)cc1", "Potency": "inconclusive: 0.708 µM [inhibitor, full curve, poor fit]"}, {"smiles": "CN1CCN(Cc2c(O)ccc3cc(-c4ccccc4)c(=O)oc23)CC1", "Potency": "inconclusive: 31.6 µM [inhibitor, single point]"}, {"smiles": "CC1CCCN(C(=O)N2c3ccccc3Sc3ccccc32)C1", "note": "(stereo not given)", "activity change, negative = inhibition": "inactive: -0.811%"}, {"smiles": "CCC(C(=O)NCCCN1CCN(C)CC1)n1nc(C)n2c(cc3occc32)c1=O", "note": "(stereo not given)", "Potency": "inconclusive: 39.8 µM [inhibitor, single point]"}, {"smiles": "O=C1c2c(O)cccc2Cc2cccc(O)c21", "Potency": "inconclusive: 1.26 µM [inhibitor, partial curve] and inconclusive: 1.58 µM [inhibitor, full curve, poor fit]"}, {"smiles": "CC(C)CCn1c(CN2CC(C)OC(C)C2)nc2c1c(=O)n(C)c(=O)n2C", "note": "(stereo not given)", "Potency": "inconclusive: 7.08 µM [inhibitor, single point]"}, {"smiles": "O=C(N/C(=C\\c1ccc(-c2ccccc2)o1)C(=O)N1CCOCC1)c1ccccc1", "activity change, negative = inhibition": "inactive: -5.44%"}, {"smiles": "O=S(=O)(c1ccc(Cl)cc1)N1CCC(c2ccncc2)CC1", "activity change, negative = inhibition": "inactive: -4.24%"}, {"smiles": "Cc1nc2c(C(=O)NCCc3ccccc3)c[nH]n2c(=O)c1Cc1ccccc1F", "Potency": "inconclusive: 39.8 µM [inhibitor, single point]"}, {"smiles": "O=C(OCc1ccc(Cl)cc1Cl)c1ccncc1", "Potency": "inconclusive: 2.24 µM [inhibitor, partial curve]"}, {"smiles": "CCS(=O)(=O)Nc1cccc(-c2nc3cccnc3s2)c1C", "Potency": "inconclusive: 35.5 µM [inhibitor, single point]"}, {"smiles": "CC(C)c1ccc(C(=O)Nc2nnc(S(=O)(=O)N3CCCCC3)s2)cc1", "Potency": "inconclusive: 1.12 µM [inhibitor, full curve, poor fit]"}, {"smiles": "CC1=C/C(=N\\OS(=O)(=O)c2ccccc2)C=CC1=O", "Potency": "active: 14.1 µM"}, {"smiles": "Cc1ccc(C2=NNC(c3cccc(F)c3)S2)cc1", "note": "(stereo not given)", "activity change, negative = inhibition": "inactive: -4.57%"}, {"smiles": "CC(C)C(=O)N(Cc1ccc2c(c1)OCO2)Cc1ccccn1", "activity change, negative = inhibition": "inactive: -0.79%"}, {"smiles": "CC(C)(C)c1ccc(C(=O)N2CCC(=O)N(C(COCc3ccccc3)Cc3ccccc3)CC2)cc1", "note": "(stereo not given)", "activity change, negative = inhibition": "inactive: -14.2%"}, {"smiles": "CN(C)c1ccc(-c2nc(Nc3ccncc3)c3ccccc3n2)cc1", "Potency": "inconclusive: 31.6 µM [inhibitor, single point]"}, {"smiles": "c1ccc(-c2nc3ccccn3c2NCc2ccc3c(c2)OCO3)cc1", "Potency": "inconclusive: 22.4 µM [inhibitor, single point]"}, {"smiles": "O=S(=O)(Nc1cccc2c1ccc1cccn12)c1cccs1", "Potency": "inconclusive: 4.47 µM [inhibitor, partial curve]"}, {"smiles": "CCCC(=O)Nc1nc(-c2ccc(OC)cc2)cs1", "activity change, negative = inhibition": "inactive: -6.99%"}, {"smiles": "CCOc1cc(/C=N/NC(=O)C2CCCC2)ccc1OC(C)C", "Potency": "inconclusive: 0.708 µM [inhibitor, single point]"}, {"smiles": "Cn1c2ccccc2c2cc(C(=O)NNS(=O)(=O)c3ccc(F)cc3)sc21", "activity change, negative = inhibition": "inconclusive: -30.2% [inhibitor]"}, {"smiles": "Cc1cc(/C=C(/C#N)c2nc3ccccc3[nH]2)c(C)n1-c1ccccc1C(=O)O", "Potency": "inconclusive: 31.6 µM [inhibitor, single point]"}, {"smiles": "COc1ccc(C(=O)NC2CC(C)(C)Cc3c2cnn3-c2ccccc2)cc1OC", "note": "(stereo not given)", "activity change, negative = inhibition": "inactive: -27.3%"}, {"smiles": "Oc1ccc(Br)cc1-c1ccnn1-c1ccccc1", "Potency": "inconclusive: 39.8 µM [inhibitor, single point]"}]}]}
